Data taken from PMC10009235.
For at least one entry, the source does not settle the construct or the ends of the probe. At least one result comes from cells or an extract, where the contact may be indirect.

Assays:
[1] = system: VEZF1; test: competition with a labelled probe; settings: unlabeled 2-, 4-, LightShift Chemiluminescent EMSA kit (Pierce) with HEK-293T nuclear extract, buffer composition, pH and temperature not stated, protein in an extract
[2] = system: VEZF1; test: EMSA with antibody interference; settings: VEZF1 antibody reduces the shift; LightShift Chemiluminescent EMSA kit (Pierce) with HEK-293T nuclear extract; buffer composition, pH and temperature not …; protein in an extract

Row | Sequence | binding result ([1]; 8-fold excess vs labeled Oligo4, dose-dependent decrease) | binding result [2] | binding result ([1]; 8-fold excess vs labeled Oligo3, dose-dependent decrease)
1 | GCGGATGAGGGGTGGGGGACCCCTTGACGT (double strand) [Flt1 Wt-L-Oligo4] | binds | binds | –
2 | CCCTCGCCGGCCCCCGCCCCTCCG (double strand) [Flt1 Wt-L-Oligo3] | – | binds | binds
